Source: ChEMBL document CHEMBL3988442, “University of Dundee, Small-Polar-MMV Screening Library” (2021).

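Whole-cell growth test on Mycobacterium tuberculosis, read after 3 days in glucose-containing 7H9 medium; the read-out is not stated. Concentration: 50 µM. Higher reads as more growth inhibition (inferred: compounds with an IC50 in retests scored well above the rest). Size under these conditions: about 69,000 compounds, about 760 of them at 50% or above in at least one test.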

The filed quantity is “Percent Effect” (%).
How 0% and 100% were set is not recorded. Most values in the screen are low, and negative values occur.
The compounds are a random part of those screened.
Two or more numbers in one place are separate tests of the same structure; such repeats can differ widely.

SMILES	Percent Effect
Cc1cccc(CN2CC3(CCN(C4CCOC4)CC3)OCC2=O)n1.O=C(O)C(F)(F)F.O=C(O)C(F)(F)F (stereo unspecified)	16.59%
CC(=O)N1CCN(C(=O)CN2CCc3c(ncn3C3CC3)C2)CC1	3.01%
NC(=O)c1ccc(CNCC2CCN(CCO)CC2)cc1	-29.59%
CC(C)CCNC(=O)c1cccnc1Oc1cccnc1	-26.91%
O=C(CCCc1ccccn1)N1CCCC(n2cccn2)C1 (stereo unspecified)	-16.82%
CSc1ccc(C(CC(=O)O)NC(=O)c2cc(C)on2)cc1 (stereo unspecified)	2.55% & 18.04%
CN(C)C(=O)c1cccc(C[S+]([O-])CC(=O)NC2CCCC2)c1 (stereo unspecified)	13.56%
Cc1ccccc1-c1noc(-c2ccc(NCC3COCCO3)nc2)n1 (stereo unspecified)	26.02%
CCc1n[nH]c(C2CN(C(=O)c3cnc(C)s3)CCO2)n1 (stereo unspecified)	23.52%
[H][C@]12CCN(C(=O)NCc3ccccc3)C[C@@]1([H])OCCN(CC)C2	19.51%
CCCS(=O)(=O)N1CCN(CCCO)CC1	-6.872%
CC(NC(=O)NCCNc1ncccn1)c1cccs1 (stereo unspecified)	3.366%
O=C1C(NS(=O)(=O)c2ccc(F)cc2)CCN1Cc1ccccc1 (stereo unspecified)	-9.616%
COCc1nc(C(=O)N2CCCC2Cn2cc(C)cn2)cs1 (stereo unspecified)	13.49%
Cc1ccc(C(C)N(C)Cc2nc3c(cnn3C)c(=O)[nH]2)c(C)c1 (stereo unspecified)	10.51%
CC(C)c1nccn1C1CCCN(C(=O)c2ccc(=O)n(C)n2)C1 (stereo unspecified)	-2.049%
CCC1CCCN(S(=O)(=O)c2cnn(C)c2)C1 (stereo unspecified)	6.458%
CCn1ncc2c1CN(C(=O)c1ccc3c(c1)OCO3)CC2COC (stereo unspecified)	16.58% & 0.0426%
Cl.Cl.Fc1cccc(-c2c[nH]c(C3CCCN3)n2)c1 (stereo unspecified)	-3.202%
[H][C@]12CC[C@]([H])(CN(C(=O)c3ccncc3)C1)N(C(=O)c1csc(C)c1)C2	12.74%
CCNc1nc(-c2cccnc2)c(-c2ccnc(NCCO)n2)s1	-0.488%
CC(=O)NCCCn1ncc2c(C)cccc21	43%
COc1ccnc(N(C)Cc2c(C)noc2C)n1	16.09% & 1.286%
CC(CCc1ccccc1)N1CCC(C(=O)NCc2ccccc2)CC1 (stereo unspecified)	0.15%
CC(=O)N1CC2(CCN(C(=O)C3CC3)CC2)c2cc(C)ccc21	-8.438%
CC(Nc1nc(-c2ccccc2)nc2c1CCNCC2)c1nccs1 (stereo unspecified)	41.12%
CCCS(=O)(=O)N1CCN(c2cc(-n3cccc3)nc(C)n2)CC1	12.09%
Cc1noc(C)c1CN1CCN(C(=O)Cn2cncn2)CC1	2.886%
Cc1c(-c2nnc(SCC(=O)O)n2C(C)c2ccccc2)cnn1C (stereo unspecified)	16.22% & -3.354%
[H][C@]12CC[C@]([H])(CN(C(=O)c3ccccc3)C1)N(Cc1cc(F)ccc1Cl)C2	25.75%
CC(C)(C)c1ccc(S(=O)(=O)CCNC(=O)c2cnccn2)cc1	-12.6%
CC(C)c1noc(CCCC(=O)NC(C)c2ccccn2)n1 (stereo unspecified)	4.424%
OC(COCc1ccco1)CN1CCc2c(ncn2C2CC2)C1 (stereo unspecified)	-31.73%
O=C(O)C(F)(F)F.[H][C@@]12CN(Cc3ccsc3)C[C@]1([H])[C@@H]2CC(=O)N1CCCC1	-13.09%
COCCN1CCN(S(=O)(=O)c2ccccc2)Cc2cccnc21.O=C(O)C(F)(F)F	41.64%
COc1ccc(CC(=O)NCC(O)c2sccc2C)cc1OC (stereo unspecified)	-27.87%
Cc1ccc(CN2CCC3(C2)C(=O)N(CC(N)=O)c2ccccc23)s1 (stereo unspecified)	-8.092%
COCCC1(CNC(=O)NCC2CCCN(C)C2)CCCC1 (stereo unspecified)	-6.816% & -4.347%
O=C1N(C2CCOCC2)CCCC12CCN(c1ncccc1Cl)C2 (stereo unspecified)	1.223%
CN(CCc1ccccn1)Cc1nccn1Cc1ccccc1	63.66%
CNC(=O)[C@@H]1C[C@@H](N)CN1C(=O)CCSCc1ccccc1	7.09%
CN(CC1CCCCO1)c1nc2c(cc1C(N)=O)CCC2 (stereo unspecified)	-0.2156% & 3.938%
O=C(c1cccnc1Oc1ccccc1)N1CCCn2ncnc21	-1.104% & -5.706%
CC(=O)N1CCC2(CC1)CN(C(=O)c1ccc3c(c1)OCO3)C2	-0.6472%
Cc1ccc(S(=O)(=O)n2ccn(C(=O)COc3ccccc3)c2=O)cc1	2.149%
CCN(Cc1nc(C(C)C)no1)Cc1cccs1	2.888%
O=C(CCNCc1cc(O)c2cc(F)ccc2n1)N1CCCC1	6.767% & -25.88%
Cc1ccsc1CCNC(=O)CCC1CCCCN1C (stereo unspecified)	-20.21%
Cc1noc(NCc2cc(F)ccc2F)n1	20.63%
[H][C@@]12COC[C@]1(COc1ccc(C#N)cn1)CN(c1ncccn1)C2	-37.79%
Cc1[nH]ncc1CCCNC(=O)Nc1ccc2c(c1)OC1(CCCC1)O2	9.751% & 34.17%
Cc1ccccc1CNC(=O)CN1CCCC(Cc2nccn2C)C1 (stereo unspecified)	-28.17% & -0.3434%
COc1ccccc1OCCNC(=O)N1CCC(n2cncn2)CC1	4.196%
CN(CCc1ccncc1)C(=O)C1CSCN1C(=O)C1CCCC1 (stereo unspecified)	0.3862% & -0.06111%
CC(CCSc1ccccc1)N1CCN(C(=O)c2cccs2)CC1 (stereo unspecified)	1.328%
Cc1cc(C)cc(OCCC(=O)NC2CC(=O)N(C)C2)c1 (stereo unspecified)	-16.46%
CCNC(=O)c1ccnc(NCC2COc3cc(OC)ccc3C2)c1 (stereo unspecified)	7.688%
CSC(C)C(=O)N(C)CC(=O)Nc1ccc(Br)cn1 (stereo unspecified)	-2.434%
Cc1cnn(C2CCCN(C(=O)Cc3n[nH]c4ccccc34)C2)c1 (stereo unspecified)	2.776%
[H][C@@]12CNC[C@@]1([H])N(CC(C)C)C(=O)CO2	-12.17%
CNC(=O)C1(CCCc2ccncc2)CCN1.O=C(O)C(F)(F)F (stereo unspecified)	-0.391%
O=C(O)C(F)(F)F.O=C(O)C(F)(F)F.[H][C@@]12CN(CC)C[C@]1([H])[C@H](OC)CCN2c1ncc(F)cn1	-16.01% & -7.555%
COc1ccccc1OCCCc1cccc(C#N)n1	-5.581%
CC(O)CN1CCC(CNCc2ccccc2OC(F)(F)F)CC1 (stereo unspecified)	-3.345%
O=C(NC1CCCc2nc(N3CCOCC3)ncc21)C1CCCCC1 (stereo unspecified)	-19.54%
CN(C)Cc1ccc(C(=O)N2CCCC(COc3ccc(F)cc3)C2)o1 (stereo unspecified)	14.24%
Cc1ccc(C(=O)N(Cc2ccc(F)cc2)C2CC2)c(=O)[nH]1	-1.347%
CN(C)CCN(Cc1ccsc1)C(=O)C1=NNC(=O)CC1	-5.778%
O=C(c1ccc2cccc(F)c2n1)N1CCN(CCn2cncn2)CC1	5.584% & 3.592%
O=C(O)C(F)(F)F.[H][C@@]12CCN(c3cnccn3)C[C@]1([H])CN(C(=O)c1ccn(C)n1)C2	13.33%
COCCNC(=O)Nc1ccc(-c2nc(C(C)C)no2)cc1	25.35%
Cc1ccc(CNC(=O)C2CCN(C(=O)c3ccco3)CC2)n1C	-41.72%
COc1cccc(CN2CCC3(CCN(c4ncc(F)cn4)CC3)C2)c1.O=C(O)C(F)(F)F	5.476% & 7.955%
Cc1ccc(C(=O)NCC(O)c2ccc(F)c(F)c2)c(=O)[nH]1 (stereo unspecified)	-22.9%

For reference, 6 entries once more:

* O=C(CCNCc1cc(O)c2cc(F)ccc2n1)N1CCCC1 : 6.767% & -25.88%
* Cc1noc(C)c1CN1CCN(C(=O)Cn2cncn2)CC1 : 2.886%
* NC(=O)c1ccc(CNCC2CCN(CCO)CC2)cc1 : -29.59%
* CC(=O)N1CCC2(CC1)CN(C(=O)c1ccc3c(c1)OCO3)C2 : -0.6472%
* O=C(c1ccc2cccc(F)c2n1)N1CCN(CCn2cncn2)CC1 : 5.584% & 3.592%
* CC(=O)N1CC2(CCN(C(=O)C3CC3)CC2)c2cc(C)ccc21 : -8.438%